We go through one compound from the supplement of paper PMC8253809.

SMILES strings stand for the structures. For some of these results: The strong results were mostly taken out for another list; the other results follow. Only a part is listed here, and it is no random draw.

Common to all, as to assay: growth inhibition (% activity, log2 RLU normalised to DMSO / staurosporine); higher = more growth inhibition
Holding throughout (details): 33 µM

One experiment concerns DIPGX29 (H3.3 K27M diffuse intrinsic pontine glioma line). An outline of the steps: (§1)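 For each approved drug, the growth-inhibition value is the replicate median of per-plate normalised CellTiter-Glo data. Luminescence was log2-transformed and expressed as % activity between solvent and positive control wells. Drugs were applied in triplicate at a single final concentration of about 33 μM for 7 days at 37 °C, 5% CO2 to pHGG cell lines and H9-derived neural stem cells.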

A further experiment deals with DIPGX37 (H3.3 K27M diffuse intrinsic pontine glioma line). In outline: as §1
A further experiment deals with DIPGX7 (H3.3 K27M diffuse intrinsic pontine glioma line). An outline of the steps:
as §1

Another experiment relates to DIPGX9 (diffuse intrinsic pontine glioma line). An outline of the steps: as §1
The test system of the next experiment is HGGX39 (paediatric high-grade glioma line). An outline of the steps:
as §1

A further experiment concerns HGGX6 (H3.3 G34R paediatric high-grade glioma line). In outline: as §1
The next experiment relates to HNSC. In outline: as §1
In another experiment the test system is SUDIPGIV (diffuse intrinsic pontine glioma line)
In outline: as §1

In a further experiment the test system is SUDIPGVI (diffuse intrinsic pontine glioma line)
An outline of the steps:
as §1

In another experiment the test system is SUDIPGXIII (diffuse intrinsic pontine glioma line)
In outline:
as §1

With `CN1C2CCC1CC(OC(=O)C(O)c1ccccc1)C2` (stereo not given), the growth inhibition in the experiment on DIPGX29 was 0.526%; with DIPGX37, 0.508%; with DIPGX7 it was 1.7%; in the experiment on DIPGX9, -0.86%; in the experiment on HGGX39, 1.69%; with HGGX6, 2.09%. Further, the growth inhibition was 0.106% with HNSC, 1.05% in the experiment with SUDIPGIV, -0.212% in the experiment on SUDIPGVI and 0.397% in the experiment with SUDIPGXIII.
